Broadly, the EC50 is the midpoint of the concentration-response curve.

The structures given here were assigned with low confidence; some may be wrong.

The target of the experiment is human A2a receptor (Homo sapiens, UniProt P29274). The experiment in a line: A2a receptor competition binding assay (Scintillation Proximity, tritiated radioligand). The note with it: read-out: A2a EC50; membranes from HEK293 cells expressing the human A2a receptor; 0.5 nM tritiated ligand; SPA beads; one hour at room temperature. (In general: In a scintillation proximity assay essentially only radioactivity close to the scintillant gives light.)

Take `COc1cc(F)cc2c1nc(N)n1nc(CN3CCN(c4ccc(Br)cc4)C(C)(C)C3)nc21`: the EC50 was 5.7 nM.

These data come from patent US9676780B2, “Piperazine-substituted [1,2,4]triazolo[1,5-C]quinazolin-5-amine compounds with A2A antagonist properties” (MERCK SHARP & DOHME CORP., priority 2012, dated 2017).
